# Some results were stated once for a whole list of compounds, not compound by compound.
# Tested on: BCR-ABL positive leukemia
# Experiment: treatment of mice transplanted with BCR-ABL positive bone marrow (CML-like disease)
# Type: in vivo, mouse
# Conditions: at the end of the treatment
structure (smiles),measurement,value
"Cc1cn(-c2cc(NC(=O)c3ccc(C)c(Nc4nccc(-c5cccnc5)n4)c3)cc(C(F)(F)F)c2)cn1 [AMN107, nilotinib]",number of GFP positive cells,below 5%
